No constants are given. Whether binding was seen depends on the method and setting. In cells and extracts the contact can be indirect. For part of these data: Binding calls can cover weak binding; strength is not graded here.

For two substances, binding results are on record in article PMC7253433.

For experiment [1], the target named is T1, DHX36 (human (endogenous in U87 and U251)) (UniProt Q9H2U1).
T1 sequence: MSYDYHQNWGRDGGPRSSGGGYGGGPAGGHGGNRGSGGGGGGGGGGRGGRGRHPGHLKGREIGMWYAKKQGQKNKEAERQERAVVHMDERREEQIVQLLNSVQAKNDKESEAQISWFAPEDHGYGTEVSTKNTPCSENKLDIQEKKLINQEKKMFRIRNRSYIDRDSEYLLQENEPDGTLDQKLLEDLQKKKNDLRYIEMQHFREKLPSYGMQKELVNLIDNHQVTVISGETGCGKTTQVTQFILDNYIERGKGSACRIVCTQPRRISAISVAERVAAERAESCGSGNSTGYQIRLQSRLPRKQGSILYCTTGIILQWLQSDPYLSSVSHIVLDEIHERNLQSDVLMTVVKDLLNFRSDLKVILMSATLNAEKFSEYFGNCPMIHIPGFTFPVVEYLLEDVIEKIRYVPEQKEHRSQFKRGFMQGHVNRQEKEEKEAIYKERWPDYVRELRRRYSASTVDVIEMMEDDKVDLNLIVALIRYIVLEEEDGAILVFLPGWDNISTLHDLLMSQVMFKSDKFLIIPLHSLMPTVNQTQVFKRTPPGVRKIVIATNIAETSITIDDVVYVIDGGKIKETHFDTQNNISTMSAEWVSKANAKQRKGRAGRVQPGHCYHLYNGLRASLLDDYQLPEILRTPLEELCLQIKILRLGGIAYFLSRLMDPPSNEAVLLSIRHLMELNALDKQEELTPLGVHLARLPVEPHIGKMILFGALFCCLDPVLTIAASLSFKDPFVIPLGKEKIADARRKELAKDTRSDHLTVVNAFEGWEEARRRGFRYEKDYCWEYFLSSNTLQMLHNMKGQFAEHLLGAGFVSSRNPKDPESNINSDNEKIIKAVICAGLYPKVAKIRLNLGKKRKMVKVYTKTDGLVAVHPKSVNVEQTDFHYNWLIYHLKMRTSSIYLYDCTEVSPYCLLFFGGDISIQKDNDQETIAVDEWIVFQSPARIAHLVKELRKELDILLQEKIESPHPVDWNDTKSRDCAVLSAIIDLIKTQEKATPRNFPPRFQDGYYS
Put plainly: co-IP; cytoplasmic extracts (CE; cytosolic + microsomal fractions) of U87 or U251 cells, endogenous proteins, digested with Benzonase and DNase I; hnRNP H/F or DHX36 antibody on beads, 1 mg extract overnight at 4 °C, western blot.

Experiment [2] addresses T1, DHX36 (human (endogenous in U87 and U251)). Put plainly: co-IP; total extracts (TE) of U87 or U251 cells, endogenous proteins, in the presence of RNase and DNase; immunoprecipitation with hnRNP H/F or DHX36 antibody, western blot.
In experiment [3] the target is T2, hnRNP F (human (endogenous in U87 and U251)) (UniProt P52597).
T2 sequence: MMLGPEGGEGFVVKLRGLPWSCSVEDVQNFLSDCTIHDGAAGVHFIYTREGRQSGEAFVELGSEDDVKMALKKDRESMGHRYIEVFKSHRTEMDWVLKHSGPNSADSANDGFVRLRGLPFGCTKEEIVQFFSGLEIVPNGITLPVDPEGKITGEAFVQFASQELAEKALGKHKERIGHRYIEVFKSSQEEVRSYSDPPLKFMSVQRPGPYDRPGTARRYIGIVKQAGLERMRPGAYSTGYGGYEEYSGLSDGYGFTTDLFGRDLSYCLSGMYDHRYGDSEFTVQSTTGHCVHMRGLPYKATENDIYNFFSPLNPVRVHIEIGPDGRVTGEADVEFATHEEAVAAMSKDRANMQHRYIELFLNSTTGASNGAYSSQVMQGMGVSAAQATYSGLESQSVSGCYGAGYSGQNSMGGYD
Briefly: co-IP; cytoplasmic extracts (CE; cytosolic + microsomal fractions) of U87 or U251 cells, endogenous proteins, digested with Benzonase and DNase I; hnRNP H/F or DHX36 antibody on beads, 1 mg extract overnight at 4 °C, western blot.

Experiment [4] deals with T2, hnRNP F (human (endogenous in U87 and U251)). Put plainly: co-IP; total extracts (TE) of U87 or U251 cells, endogenous proteins, in the presence of RNase and DNase; immunoprecipitation with hnRNP H/F or DHX36 antibody, western blot.

Take “hnRNP H (human (endogenous in U87 and U251))”: the binding result in experiment [1] and in experiment [2] was “binds” in each case.

With “translation initiation factor eIF4A (human (endogenous in U87 and U251)) (enzyme)”, the binding result in experiment [3], in experiment [1], in experiment [4] and in experiment [2] was “no binding” each time.
